From PMC3688854 come the findings set out here.

Results are given in words; binding and its absence hold for the method and conditions named. In cells and extracts the contact can be indirect. Some binding calls cover weakened binding; strength is not graded here. Where a sequence is shown, tags or fusion partners need not be part of it.

The assay concerns the target Arabidopsis bZIP63, BiFC fusions (Arabidopsis) (UniProt B9DGI8). As to the kind of experiment: split reporter; BiFC with pE-SPYNE/pE-SPYCE constructs coexpressed in N. benthamiana leaves by Agrobacterium infiltration with the p19 silencing plasmid; YFP fluorescence in protoplasts by confocal microscopy.

B1: Arabidopsis bZIP63, BiFC fusions (protein, UniProt B9DGI8 1-314)
chain: MEKVFSDEEISGNHHWSVNGMTSLNRSASEWAFNRFIQESSAAADDGESTTACGVSVSSPPNVPVDSEEYRAFLKSKLNLACAAVAMKRGTFIKPQDTSGRSDNGGANESEQASLASSKATPMMSSAITSGSELSGDEEEADGETNMNPTNVKRVKRMLSNRESARRSRRRKQAHLSELETQVSQLRVENSKLMKGLTDVTQTFNDASVENRVLKANIETLRAKVKMAEETVKRLTGFNPMFHNMPQIVSTVSLPSETSNSPDTTSSQVTTPEIISSGNKGKALIGCKMNRTASMRRVESLEHLQKRIRSVGDQ
Consider B1, for which the binding result is “binds”.
